The campaign covered roughly 52,000 sequences. About 210 (0.4%) were called active.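 How the source made its calls: active means gene whose silencing raises cell survival under the drug, median off-target-corrected z-score across its silencing RNAs 2 or more; inactive means the rest.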 Some of the results follow.

The nature of the assay: Resistance to Poly (ADP-Ribose) Polymerase inhibitor: Gene Identification via Genome-wide siRNA Screen. As to conditions: mouse BRCA2 R2336H ES cells, olaparib, CellTiter-Glo viability; active compounds read high. An outline of the steps:
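Mouse BRCA2 R2336H ES cells were reverse-transfected with siRNA (20 nM final), treated at 48 h with 500 nM olaparib, and read by CellTiter-Glo after 72 h. Scores: MAD-based z per siRNA, median per gene, seed off-target correction.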
(In ATP-based viability assays light output follows the ATP content of the culture.)
Turning to “GCUUUCAUGUCCUAAAGAATT against 4921504E06Rik”, the z-score was inactive: -1.19.
For the sequence GCCGUUUACGUUUAUUGUUTT against Cutl2, the z-score was inactive: -0.0904.
With CCUGGUGCAUGCUUUAAUATT against Kynu, the z-score is inactive: 0.892.
Consider GCCACUUACACUUACUUGATT against Olfr1331, for which the z-score was inactive: 1.17.
With CCAUCUACGAUCAAGAGAATT against Cryba1 the figure was inactive: -0.711; with GGAAUGUGCUCAUUUUUGATT against Hspa8, inactive: -3.09.
The value for GGAUUUCUUCAAGUCCUUGTT against Scgb1a1 was inactive: 0.357; that for GGCCAUAUUGGAGCAAAUCTT against Nppa was inactive: -1.6; that for GGUCCUAAAAAACUGAGCUTT against Frag1 was inactive: 0.859.
The value for GAGAAACACCAUCUCCUAUTT against Olfr502 was inactive: 0.515; that for GCAGGUGCCUUCAAAAACCTT against Gm424 was inactive: 2.
CCUGAUCUGUGGCACGGAUTT against Spink4: the z-score is inactive: -1.17.
On to GGAUGAAGUGCUAAUAGGATT against ORF9, for which the z-score was inactive: -0.0918.
Consider GCUUUGAGAACCUUGGUAATT against Rab9b, for which the z-score was inactive: -1.02.
The value for “GGAUAGUGAAGUCAUUGAATT against 2610016F04Rik” was inactive: -0.0186.
With GGUGAAGGUCAGCAAAGAATT against Exosc5 the figure was inactive: -1.08; with CCUACAGCGAGCUAUUUCATT against Epc2, inactive: -1.53.
With GCAACUGUACACUAGAUACTT against Tes3 the figure was inactive: -0.32; with CGAAUGUGGCUAUGACCUGTT against Kif6, inactive: -0.204; with GGGCAUGUUCACCAUCAGATT against Sec1, inactive: 1.43.
In the case of GCCUCUUUUCACACUUAAATT against Olfr608, the z-score was inactive: 0.235.
With “GGGUCAAUCUAAAUAUGUGTT against 0610008C08Rik” the figure was inactive: -0.201; with GGAUAUGGACUAUUCACGGTT against Dgat1, inactive: 0.949; with CCCAGCAUACCAUCUCUACTT against Arhgef1, inactive: -0.132.
As to GGAACUGAAUGCUCUUCCATT against Msln, the z-score was inactive: 1.47.
In the case of GGUGGUAGUUUAUGAUCAATT against Dusp16, the z-score is inactive: -1.72.
The value for AAACUUGGCGUAUCAGGAATT against LOC544988 was inactive: -0.337; that for GGCAAAGGCACUGUCAGUGTT against BC013672 was inactive: -0.289; that for GCACAGGUCUAAUUCGUCUTT against Grik1 was inactive: -0.209.
The value for “GCCGAUGAAGACCUUAGUCTT against 4933433C09Rik” was inactive: 0.383; that for “GGAAGAUGGGCAAGAUGAUTT against 1200013B08Rik” was inactive: -3.01.
The value for GGCAACAAUGGUUGUCUUGTT against Ctsr was inactive: -0.194; that for GGCCAACGUGGAGUUAUCATT against Hadh2 was inactive: 1.85.
In the case of GGAACAAUAUAUCUUCAUCTT against Ptpru, the z-score is inactive: 0.255.
With GGAUCUGGUGAAACUAGCUTT against Psmd4 the figure was inactive: -3.33; with GGGCUAUGCCUACUACACUTT against Fn3k, inactive: 0.584; with CCUUUCCCUCCAUUUAGGGTT against Sit, inactive: 0.484.
For the sequence GGAGUGAUAGUCAUCAAUGTT against Olfr357, the z-score was inactive: 2.03.
The value for “GGAGACCAGGAAUAAUUGUTT against 5330438I03Rik” was inactive: -0.139; that for GGGCAUAGAUUAGUCUUUATT against Ing1l was inactive: -2.01; that for GGACCAACGUGCAGAAAUGTT against Metrn was inactive: 0.653.
With GGCCAUCGUCUUGAAGAAGTT against Cdca5, the z-score is inactive: -1.42.
The value for GGACUUUAGAGUUCGCCAUTT against BC026778 was inactive: 1.19; that for GCGAACUCAAACAGUUAAATT against Clca3 was inactive: -0.354.
The value for CCUUUAUGGGACACUAUUUTT against Alb1 was inactive: -2; that for CCCAGAGCUGUUAUUUAAATT against Ripk3 was inactive: 0.0114; that for GGAAACAAAUGAGUUGCUGTT against Stx12 was inactive: -0.369.
For the sequence CUGCGAGGCUUUUUAAAUGTT against Prr7, the z-score is inactive: 0.0676.
GGUAUUGGUCCAAUUUUUCTT against Gng7: the z-score was inactive: -0.642.
GGAAAGCUUUCUAUUACAATT against BB114266: the z-score was inactive: -1.24.
With GCCGUUUAAACAGUUCAACTT against T2bp, the z-score is inactive: 0.212.
For GGUGUGAACUCCUUCCUGGTT against Dpysl4, the z-score is inactive: 2.28.
The value for CGAGAAGAUAUUUAAAGAGTT against Myo10 was inactive: 0.642; that for CCCUGAUGAAUAAGGACUCTT against Kif17 was inactive: 0.643; that for GGUCACCUGGGUAUUUAUGTT against Tead3 was inactive: 0.596.
As for GGAGAAGAAGGAGAGGAUGTT against Myo18a, the z-score was inactive: -2.22.
GGCUUGAUGGGCUUUUUGCTT against Ndufb8: the z-score was inactive: 0.31.
Take GGUCUUCCUUGAACAUCAGTT against Fev: the z-score was inactive: 0.96.
Regarding GGAUCUCAAUGUUCACUUGTT against Bpil1, the z-score was inactive: -1.3.
With GUCCGUCUCGGAGAAAUGUTT against BC018462 the figure was inactive: -0.175; with “GGCACAAAUUUUAUGCCUGTT against 4931440N07Rik”, inactive: 0.336.
The value for GCUAGUAUUGAGCAACAACTT against Rnh1 was inactive: 1.08; that for GCUCAGUUUAUACCAAAAUTT against Api5 was inactive: -2.14; that for GGUAAAGAAAGACGACCACTT against Ppap2c was inactive: -0.518.
Turning to “GCUCAUACAUGGUGGACUATT against 1700011F03Rik”, the z-score is inactive: -2.21.
The value for GGGAGAACUUAGCACGAAUTT against Polr2h was inactive: -1.02.
Consider GGAACCUUAGAUGUUACUUTT against Scara3, for which the z-score is inactive: -0.21.

(Values after PubChem BioAssay AID1347423 (Functional Genomics Laboratory (NCATS/FGL), 2020).)
